Amino acid sequences for entries named in this document (tags omitted). A change or cut given only in a name is not applied to a line headed by its entry. Chains listed by the source or under a name are the forms on record and can include a tag or linker.
UniProt Q03135: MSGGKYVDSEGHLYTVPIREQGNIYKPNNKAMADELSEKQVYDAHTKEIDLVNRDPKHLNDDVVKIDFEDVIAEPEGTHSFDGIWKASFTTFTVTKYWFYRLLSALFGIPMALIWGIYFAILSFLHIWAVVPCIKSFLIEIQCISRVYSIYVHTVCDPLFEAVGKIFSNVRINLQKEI
UniProt P61586: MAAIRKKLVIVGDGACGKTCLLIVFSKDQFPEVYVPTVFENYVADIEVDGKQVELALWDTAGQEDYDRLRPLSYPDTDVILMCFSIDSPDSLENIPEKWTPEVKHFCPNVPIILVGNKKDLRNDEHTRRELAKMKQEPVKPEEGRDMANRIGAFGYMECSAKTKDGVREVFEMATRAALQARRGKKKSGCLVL
HA-RhoA V14 (constitutively active form) (P61586, form named): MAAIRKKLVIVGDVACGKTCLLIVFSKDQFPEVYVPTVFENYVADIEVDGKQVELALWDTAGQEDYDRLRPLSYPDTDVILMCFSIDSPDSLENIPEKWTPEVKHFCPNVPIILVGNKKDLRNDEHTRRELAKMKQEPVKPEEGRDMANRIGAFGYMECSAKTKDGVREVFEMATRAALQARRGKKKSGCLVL
RhoA N19 (dominant negative form) (P61586, form named): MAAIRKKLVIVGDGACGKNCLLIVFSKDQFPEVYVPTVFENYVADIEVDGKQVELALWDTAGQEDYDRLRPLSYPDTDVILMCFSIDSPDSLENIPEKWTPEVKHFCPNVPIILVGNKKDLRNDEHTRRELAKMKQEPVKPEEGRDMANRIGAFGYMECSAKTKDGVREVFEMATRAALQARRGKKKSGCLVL
UniProt P63096: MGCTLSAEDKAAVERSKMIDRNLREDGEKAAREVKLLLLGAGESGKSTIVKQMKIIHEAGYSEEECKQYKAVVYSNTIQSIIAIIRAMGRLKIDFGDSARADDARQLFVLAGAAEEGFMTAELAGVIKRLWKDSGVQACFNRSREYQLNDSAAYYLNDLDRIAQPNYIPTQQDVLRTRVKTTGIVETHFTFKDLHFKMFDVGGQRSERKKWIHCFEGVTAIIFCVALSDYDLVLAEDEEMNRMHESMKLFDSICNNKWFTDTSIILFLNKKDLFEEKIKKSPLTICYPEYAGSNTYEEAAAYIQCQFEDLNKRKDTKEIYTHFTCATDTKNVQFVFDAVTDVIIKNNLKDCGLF

Results are given in words; binding and its absence hold for the method and conditions named. Binding seen in cells or lysates may run through a third protein. Some binding calls cover weakened binding; strength is not graded here.
What follows are substances tested against GFP-tagged caveolin-1 (human) (UniProt Q03135) (assay: co-IP; GFP-caveolin-1 immunoprecipitated with anti-GFP antibody-conjugated beads from total lysates (buffer A: 50 mM Hepes pH 7.4, 50 mM NaCl, 0.5% NP-40), 3 h, washed three times with buffer B; western blot with anti-RhoA, anti-Gαi1, anti-GFP; cells mitotically arrested (10 μM STLC) or synchronized by release from a double thymidine block).
“HA-RhoA V14 (constitutively active form) (from UniProt P61586 1-193)” was tested, and the binding was “binds”. With “RhoA N19 (dominant negative form) (from UniProt P61586 1-193)” the binding was “binds weakly”. With “endogenous Gαi1 (from UniProt P63096 1-354)” the binding was “binds”.

— paper PMC4910015
